The list shows only some results of the screen, not a fair sample: it gathers tests that were run many times, whatever their T/C, doses with no T/C, and many T/C values between a quarter and a half above the control. Further doses and runs are listed elsewhere. T/C: endpoint of the treated group in % of that of the vehicle group. Some doses have a count of surviving animals in place of a T/C: the source holds a T/C of zero for them, seemingly a mark for toxic or unscored doses. Some doses without a T/C left all or most animals alive at the check, yet need not have been tolerated: survival well below the control is almost never listed, so the zero probably covers shortened survival too. Counts of survivors are from the toxicity check (mostly the fifth day) where no day follows; animals may have died later. Schedules are NCI's codes, read here as Q, the interval in days (D) or hours (H), X, the number of doses. For survival time, the PubChem record calls one and a half times the control and up active, and a quarter to a half above the control has no call in these data; cut-offs in other NCI protocols can differ. Some T/C values carry the count of animals alive at the toxicity check (mostly the fifth day); without a count, all were alive then. Some entries were tested several times; the values are given in rising order.
System: BDF1 mice, P388 leukemia ip, median survival T/C
Assay: NCI In Vivo Anticancer Drug Screen. Data for tumor model P388 Leukemia (intraperitoneal) in B6D2F1 (BDF1) mice
Settings: T/C endpoint: median survival time, higher T/C = longer survival
Summary of the method: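 Each value expresses how treatment altered survival: treated-mouse outcome over vehicle-mouse outcome, both groups bearing the transplanted tumour.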

[1] = dose: 25.0 mg/kg/injection, schedule: Q01DX009 (ip), vehicle: saline with Tween-80
[2] = dose: 100.0 mg/kg/injection, schedule: Q01DX009 (ip), vehicle: saline with Tween-80
[3] = dose: 200.0 mg/kg/injection, schedule: Q01DX009 (ip), vehicle: saline with Tween-80
[4] = dose: 50.0 mg/kg/injection, schedule: Q01DX009 (ip), vehicle: saline with Tween-80
[5] = dose: 400.0 mg/kg/injection, schedule: Q01DX009 (ip), vehicle: saline with Tween-80
[6] = dose: 400.0 mg/kg/injection, schedule: Q04DX003 (ip), vehicle: saline

**Q.** Which survivor count [1] does the source give for `[Cl][Hg][CH2]CC1CC=CCC1` (configuration not stated) here?
**A.** 2 of 6

**Q.** Which results are given for `COc1cc(NS(C)(=O)=O)ccc1N`?
**A.** survivor count (dose: 200.0 mg/kg/injection, schedule: Q04DX003 (ip), vehicle: Klucel (hydroxypropylcellulose) (HPC)): 4 of 6; survivor count (dose: 400.0 mg/kg/injection, schedule: Q01DX009 (ip), vehicle: Klucel (hydroxypropylcellulose) (HPC)): 0 of 6; survivor count (dose: 400.0 mg/kg/injection, schedule: Q04DX003 (ip), vehicle: Klucel (hydroxypropylcellulose) (HPC)): 0 of 6

**Q.** What does the source list for `IP(c1ccccc1)(c1ccccc1)(c1ccccc1)N1C2CCCCC21` (configuration not stated)?
**A.** T/C (dose: 0.15 mg/kg/injection, schedule: Q01DX009 (ip), vehicle: saline): 127 % of control; T/C (dose: 0.3 mg/kg/injection, schedule: Q01DX009 (ip), vehicle: saline): 131 and 149 % of control; T/C (dose: 0.6 mg/kg/injection, schedule: Q01DX009 (ip), vehicle: saline): 145 % of control; survivor count (dose: 0.62 mg/kg/injection, schedule: Q01DX009 (ip), vehicle: saline): 3 of 6; T/C (dose: 0.93 mg/kg/injection, schedule: Q04DX003 (ip), vehicle: saline): 136 % of control; survivor count (dose: 1.25 mg/kg/injection, schedule: Q01DX009 (ip), vehicle: saline): 2 of 6; T/C (dose: 1.4 mg/kg/injection, schedule: Q04DX003 (ip), vehicle: saline): 127 % of control; survivor count (dose: 2.5 mg/kg/injection, schedule: Q01DX009 (ip), vehicle: saline): 0 of 6

**Q.** For `CC(C)(C)c1cc2c3c(c1)C(C)(C)OS3(C)(=O)OC2(C)C`, which survivor count (dose: 100.0 mg/kg/injection, schedule: Q04DX002 (ip), vehicle: saline with Tween-80) is on record?
**A.** 0 of 6

**Q.** And the survivor count (dose: 200.0 mg/kg/injection, schedule: Q04DX002 (ip), vehicle: saline with Tween-80)?
**A.** 0 of 6

**Q.** `CC1=C2CC(C)(C)/C=C\C(=O)/C(C)=C\C3=CC(C)(O)CC3(O2)C1=O` (configuration not stated) was tested. Which T/C (dose: 2.5 mg/kg/injection, schedule: Q01DX009 (ip), vehicle: saline + alcohol) did it give?
**A.** 130 % of control

**Q.** And the T/C (dose: 5.0 mg/kg/injection, schedule: Q01DX009 (ip), vehicle: saline + alcohol)?
**A.** 134 % of control

**Q.** What about the survivor count (dose: 20.0 mg/kg/injection, schedule: Q01DX009 (ip), vehicle: saline + alcohol) of the same compound?
**A.** 1 of 4

**Q.** What does the source list for `O=C(Nc1ccc(Cl)c(Cl)c1)Nc1c(Oc2ccc(Cl)c(Cl)c2)ccc(Cl)c1S(=O)(=O)O`?
**A.** T/C (dose: 80.0 mg/kg/injection, schedule: Q01DX009 (ip), vehicle: saline): 131 % of control; T/C (dose: 120.0 mg/kg/injection, schedule: Q01DX009 (ip), vehicle: saline): 127 % of control [5 of 6 alive]

**Q.** How did the T/C [2] turn out when `CCOCN(COCC)c1cccc(Cl)c1` was run?
**A.** 139 % of control

**Q.** What about the T/C [3] of the same compound?
**A.** 144 % of control

**Q.** `CCOc1ccc(Nc2ncnc3nc[nH]c23)cc1CN(CCCl)CCCl` was tested. Which T/C (dose: 0.44 mg/kg/injection, schedule: Q04DX003 (ip), vehicle: saline) did it give?
**A.** 145 % of control

**Q.** And the T/C (dose: 0.45 mg/kg/injection, schedule: Q04DX003 (ip), vehicle: saline)?
**A.** 129 % of control

**Q.** What about the T/C (dose: 0.5 mg/kg/injection, schedule: Q01DX009 (ip), vehicle: saline) of the same compound?
**A.** 136 % of control

**Q.** And the T/C (dose: 0.66 mg/kg/injection, schedule: Q04DX003 (ip), vehicle: saline)?
**A.** 133 % of control

**Q.** And the T/C (dose: 1.33 mg/kg/injection, schedule: Q04DX003 (ip), vehicle: saline)?
**A.** 144 % of control

**Q.** And the T/C (dose: 2.0 mg/kg/injection, schedule: Q04DX003 (ip), vehicle: saline)?
**A.** 149 % of control

**Q.** What about the T/C (dose: 4.0 mg/kg/injection, schedule: Q01DX009 (ip), vehicle: saline) of the same compound?
**A.** 145 % of control

**Q.** What about the survivor count (dose: 5.0 mg/kg/injection, schedule: Q01DX009 (ip), vehicle: saline) of the same compound?
**A.** 4 of 6

**Q.** What about the survivor count (dose: 7.5 mg/kg/injection, schedule: Q01DX009 (ip), vehicle: saline) of the same compound?
**A.** 2 of 6

**Q.** What about the survivor count (dose: 8.0 mg/kg/injection, schedule: Q01DX009 (ip), vehicle: saline) of the same compound?
**A.** 1 of 6

**Q.** And the survivor count (dose: 25.0 mg/kg/injection, schedule: Q04DX003 (ip), vehicle: saline)?
**A.** 4 of 6

**Q.** What about the survivor count (dose: 50.0 mg/kg/injection, schedule: Q04DX003 (ip), vehicle: saline) of the same compound?
**A.** 3 of 6

**Q.** What about the survivor count (dose: 100.0 mg/kg/injection, schedule: Q04DX003 (ip), vehicle: saline) of the same compound?
**A.** 0 of 6

**Q.** `CC1CC(N)=NC1C(=O)NCCC#N` (configuration not stated) was tested. Which survivor count [3] did it give?
**A.** 6 of 6

**Q.** How did the survivor count (dose: 25.0 mg/kg/injection, schedule: Q01DX009 (ip), vehicle: Klucel (hydroxypropylcellulose) (HPC)) turn out when `O=C(CC(=O)C(F)(F)C(F)(F)C(F)(F)F)c1csc2ccccc12` was run?
**A.** 6 of 6

**Q.** And the survivor count (dose: 200.0 mg/kg/injection, schedule: Q01DX009 (ip), vehicle: saline)?
**A.** 5 of 6

**Q.** And the survivor count (dose: 400.0 mg/kg/injection, schedule: Q01DX009 (ip), vehicle: saline)?
**A.** 2 of 6

**Q.** `C=CCNC(=O)NCC=C` was tested. Which T/C (dose: 25.0 mg/kg/injection, schedule: Q01DX010 (ip), vehicle: saline) did it give?
**A.** 133 % of control

**Q.** What about the T/C (dose: 50.0 mg/kg/injection, schedule: Q01DX010 (ip), vehicle: saline) of the same compound?
**A.** 133 % of control

**Q.** What about the T/C (dose: 200.0 mg/kg/injection, schedule: Q01DX010 (ip), vehicle: saline) of the same compound?
**A.** 144 % of control

**Q.** What about the survivor count (dose: 400.0 mg/kg/injection, schedule: Q01DX010 (ip), vehicle: saline) of the same compound?
**A.** 0 of 6

**Q.** What does the source list for `O=C(C=C(C(F)(F)F)C(F)(F)F)c1cc(Cl)ccc1Cl`?
**A.** T/C (dose: 16.5 mg/kg/injection, schedule: Q04DX003 (ip), vehicle: saline with Tween-80): 126 % of control; survivor count [1]: 5 of 6; T/C (dose: 25.0 mg/kg/injection, schedule: Q04DX003 (ip), vehicle: saline with Tween-80): 126 % of control; survivor count [4]: 5 of 6; survivor count (dose: 50.0 mg/kg/injection, schedule: Q04DX003 (ip), vehicle: saline with Tween-80): 6 of 6

**Q.** How did the survivor count [3] turn out when `CC(C)n1cnc2c(=S)nc[nH]c21` was run?
**A.** 6 of 6

**Q.** And the survivor count [5]?
**A.** 3 of 6

**Q.** Which T/C (dose: 30.0 mg/kg/injection, schedule: Q01DX009 (ip), vehicle: saline with Tween-80) does the source give for `COc1cccc(/C=C/[N+](=O)[O-])c1` here?
**A.** 125 % of control

**Q.** What about the survivor count (dose: 45.0 mg/kg/injection, schedule: Q01DX009 (ip), vehicle: Klucel (hydroxypropylcellulose) (HPC)) of the same compound?
**A.** 5 of 6

**Q.** What about the survivor count (dose: 60.0 mg/kg/injection, schedule: Q01DX009 (ip), vehicle: Klucel (hydroxypropylcellulose) (HPC)) of the same compound?
**A.** 0 of 6

**Q.** And the survivor count (dose: 120.0 mg/kg/injection, schedule: Q01DX009 (ip), vehicle: saline with Tween-80)?
**A.** 3 of 6

**Q.** With `O=C(Nc1ccc(S(=O)(=O)O)cc1)c1ccc([N+](=O)[O-])cc1` as the compound, how does the T/C [6] read?
**A.** 90, 120, 127, 165 % of control [5 of 6 alive]

**Q.** For `CCOC(=O)Oc1ccc(/C=N/NC(N)=S)nc1`, which T/C (dose: 12.5 mg/kg/injection, schedule: Q01DX009 (ip), vehicle: saline with Tween-80) is on record?
**A.** 142 % of control

**Q.** What about the T/C [1] of the same compound?
**A.** 149 % of control

**Q.** For `Cc1ccc2c(c1)C(=O)CC=C(C(=O)O)N2`, which T/C [2] is on record?
**A.** 129 % of control

**Q.** What about the T/C [5] of the same compound?
**A.** 129 % of control

**Q.** What does the source list for `COc1ccc(OC)c(/C=C/[N+](=O)[O-])c1`?
**A.** T/C (dose: 50.0 mg/kg/injection, schedule: Q01DX009 (ip), vehicle: Klucel (hydroxypropylcellulose) (HPC)): 133 % of control; T/C (dose: 100.0 mg/kg/injection, schedule: Q01DX009 (ip), vehicle: Klucel (hydroxypropylcellulose) (HPC)): 130 % of control

**Q.** What does the source list for `NNC(=O)CCCCCCCCCCCCCCCO`?
**A.** survivor count [2]: 6 of 6; survivor count [3]: 6 of 6

**Q.** With `CC1(C)OCC(=NNC(N)=O)CO1` as the compound, how does the survivor count (dose: 200.0 mg/kg/injection, schedule: Q04DX003 (ip), vehicle: saline) read?
**A.** 3 of 6

**Q.** And the survivor count [6]?
**A.** 0 of 6

**Q.** How did the survivor count [4] turn out when `C[As](C)(=S)[As](C)(C)=S` was run?
**A.** 2 of 6

**Q.** `CCNC(=O)c1cc2cccc(OC)c2oc1=N` was tested. Which survivor count (dose: 75.0 mg/kg/injection, schedule: Q01DX009 (ip), vehicle: saline) did it give?
**A.** 7 of 7

**Q.** What about the survivor count (dose: 150.0 mg/kg/injection, schedule: Q01DX009 (ip), vehicle: saline) of the same compound?
**A.** 7 of 7

**Q.** How did the T/C (dose: 60.0 mg/kg/injection, schedule: Q01DX009 (ip), vehicle: saline with Tween-80) turn out when `CN(c1ccccc1)c1ccc([N+](=O)[O-])c2no[n+]([O-])c12` was run?
**A.** 131 % of control

**Q.** `C[N+](C)(CC(=O)Nc1ccc(Cl)c(C(F)(F)F)c1)CC(=O)c1ccc(Cl)c(Cl)c1` was tested. Which survivor count (dose: 100.0 mg/kg/injection, schedule: Q04DX003 (ip), vehicle: saline sonified) did it give?
**A.** 5 of 5

**Q.** With `CCn1c2ccc(N)cc2c2c3[nH]c(=O)c4cccn4c3ccc21` as the compound, how does the survivor count (dose: 400.0 mg/kg/injection, schedule: Q04DX002 (ip), vehicle: saline with Tween-80) read?
**A.** 1 of 5

**Q.** For `C/C=C/C=C/C(=O)c1ccc(OC)cc1O`, which T/C [3] is on record?
**A.** 127 % of control

**Q.** What about the T/C [5] of the same compound?
**A.** 145 % of control

Source: PubChem BioAssay AID328 (DTP/NCI, 2004)
